The values that follow come from PMC10893103, “Cyclodextrin-Enabled Enantioselective Complexation Study of Cathinone Analogs” (Molecules, 2024).

Several values for one entry are separate records, joined by “and”; a condition that tells them apart may be missing. Equal entries are not always repeated.

The nature of data set [1]: Chiral CE enantioseparation screening, pH 4.5.
Data set [2] can be described thus: Chiral CE enantioseparation screening, pH 4.5. The source holds these as a separate data set.
A short description of data set [3]: Chiral CE enantioseparation screening, pH 4.5. This is another data set of the same source.
A short description of data set [4]: Chiral CE enantioseparation screening, pH 4.5. The source holds these as a separate data set.
The nature of data set [5]: Chiral CE enantioseparation screening, pH 4.5. The source holds these as a separate data set.
Data set [6] is described as follows: Affinity capillary electrophoresis (ACE), pH 7.4. As to conditions: 30 mM phosphate buffer pH 7.4; at the optimal CD concentration printed in brackets beside the value. The text has this:
To assess the CD complex formation capability of the five cathinone derivatives, we devised a screening ACE method tailored to closely mimic physiological conditions. In a preliminary study, the ACE conditions were optimized regarding the type, pH, and concentration of the background electrolyte, the applied voltage, and the injection parameters. […] In order to avoid high Joule heat generation, sufficiently low voltage should be used; thus, after registering the Ohm plot (I-U plot), it was set to 15 kV. Throughout our ACE measurements, corrections for viscosity and ionic strength were systematically implemented to ensure precise determination of complex stability constants.
The CE experiments were performed on a HP ^3DCE and on an Agilent 7100 instrument (Agilent Technologies, Waldbronn, Germany) equipped with a photodiode array detector and the Chemstation software for data handling. Untreated fused silica capillaries (50 µm id, 48.5 cm total, 40 cm effective length) were purchased from Agilent. Conditioning of new capillary was conducted by flushing with 1 M NaOH followed by 0.1 M NaOH and water for 30 min each. Prior to all runs, the capillary was preconditioned by rinsing with BGE (2 min). The temperature of the capillary was set to 25 °C. UV detection was performed at 215 nm, and 15–25 kV voltage was applied. Samples were injected hydrodynamically (150 mbar·sec, optimized in the 50–500 mbar·sec range). The CE-pH measurements were carried out applying 25 kV voltage and 200 mbar·sec injection.
The background electrolyte of the CE-pH measurements contained 25 mM Na2HPO4 and 25 mM Na2B4O7, and the appropriate pH was adjusted with hydrochloric acid. During the ACE measurements, 30 mM phosphate buffer pH 7.4 (30 mM Na2HPO4—NaOH) was used. The running buffer was 20 mM acetic acid adjusting with 1 M Tris the pH to 4.5 during the chiral screening experiments. The BGEs contained CDs at various concentrations (0.25–20 mM) in the ACE experiments and 1-5-10 mM in the chiral method optimization experiments.
Stock solutions of each cathinone analog (mephedrone, flephedrone, 4-MEC, butylone, and MDPV) were prepared separately in methanol (1 mg/ml), and appropriate dilutions with water were used to prepare sample solutions for the CE-pH titration and for the ACE studies applying DMSO as EOF marker, while their mixture was used during the chiral separation studies.
The simplest way to determine the mobility is from the migration times (tmax) read from the electropherograms from which the apparent mobility could be calculated, but more accurate mobility values could be obtained by the determination with the Haarhoff–van der Linde (HVL) function based on Equation (2). (2) HVLδ(t;a0,a1,a2,a3δ)=a0/a2a3δ2πexp[−1/2(t−a1/a2)^2]/1/exp(a3δ)−1+1/2[1+erf(t−a1/2a2)] where a0 is the area of the HVL function, a1 is the position of the Gaussian component, a2 is the standard deviation of the Gaussian component, and a3δ is the peak shape distortion. The application of the HVL function is necessary in the case of accurate ACE measurements because, in several cases, the peaks are distorted due to the complex formation, which makes reading the migration times and calculating the mobility more difficult and imprecise.
The most popular technique for quantifying the analyte–ligand interaction with CE is mobility shift ACE.

Where [7] appears, read: 20 mM acetate buffer pH 4.5, CD 10 mM.
Where [8] appears, read: 20 mM acetate buffer pH 4.5, CD 1-5 mM.
[9] abbreviates: 20 mM acetate buffer pH 4.5, CD 1-5-10 mM.
Where [10] appears, read: 20 mM acetate buffer pH 4.5, CD 1 mM.
The mark [11] stands for this setting: 20 mM acetate buffer pH 4.5, CD 5 mM.

As to `COC[C@H]1O[C@@H]2O[C@H]3[C@H](OC)[C@@H](OC)[C@@H](O[C@H]4[C@H](OC)[C@@H](OC)[C@@H](O[C@H]5[C@H](OC)[C@@H](OC)[C@@H](O[C@H]6[C@H](OC)[C@@H](OC)[C@@H](O[C@H]7[C@H](OC)[C@@H](OC)[C@@H](O[C@H]1[C@H](OC)[C@H]2OC)O[C@@H]7COC)O[C@@H]6COC)O[C@@H]5COC)O[C@@H]4COC)O[C@@H]3COC` [TRIME-α-CD, permethylated-α-CD], the “Enantioseparation (Rs) of MDPV” value in data set [1] (setting [7]) and in data set [1] (setting [8]) was 0 each time. The “Enantioseparation (Rs) of Mephedrone” value in data set [2] (setting [7]) turned out to be 0.7; in data set [2] (setting [8]), 0. Moreover, the “Enantioseparation (Rs) of Butylone” value in data set [3] (setting [7]) and in data set [3] (setting [8]) was 0 in each case. The “Enantioseparation (Rs) of Flephedrone” value worked out at 0.6 in data set [4] (setting [7]) and 0 in data set [4] (setting [8]). For the same compound, the “Enantioseparation (Rs) of 4-MEC” value in data set [5] (setting [7]) stood at 0.8; in data set [5] (setting [8]) it was 0.

As for sulfobutyl-ether-β-CD [SBE-β-CD (DS~4)], in data set [6], the “4-MEC maximal enantioresolution Rs” value is reported as 0.8 and the “Mephedrone maximal enantioresolution Rs” value is listed as 0.7.

Turning to `NC[C@H]1O[C@@H]2O[C@H]3[C@H](O)[C@@H](O)[C@@H](O[C@H]4[C@H](O)[C@@H](O)[C@@H](O[C@H]5[C@H](O)[C@@H](O)[C@@H](O[C@H]6[C@H](O)[C@@H](O)[C@@H](O[C@H]7[C@H](O)[C@@H](O)[C@@H](O[C@H]8[C@H](O)[C@@H](O)[C@@H](O[C@H]1[C@H](O)[C@H]2O)O[C@@H]8CO)O[C@@H]7CO)O[C@@H]6CO)O[C@@H]5CO)O[C@@H]4CO)O[C@@H]3CO` [MA-β-CD, mono-(6-N-amino-6-deoxy)-β-CD], in data set [6], the “Butylone maximal enantioresolution Rs” value came out at 0.5 and the “MDPV maximal enantioresolution Rs” value is recorded as 0.7.

For sulfopropylated-β-CD [SP-β-CD (DS~2)], the “MDPV maximal enantioresolution Rs” value in data set [6] turned out to be 0.6.

Regarding succinyl-β-CD [Succ-β-CD (DS~6)], in data set [6], the “Butylone maximal enantioresolution Rs” value was 1.8.

For the compound `COC[C@H]1O[C@@H]2O[C@H]3[C@H](OC)[C@@H](OC)[C@@H](O[C@H]4[C@H](OC)[C@@H](OC)[C@@H](O[C@H]5[C@H](OC)[C@@H](OC)[C@@H](O[C@H]6[C@H](OC)[C@@H](OC)[C@@H](O[C@H]7[C@H](OC)[C@@H](OC)[C@@H](O[C@H]8[C@H](OC)[C@@H](OC)[C@@H](O[C@H]9[C@H](OC)[C@@H](OC)[C@@H](O[C@H]1[C@H](OC)[C@H]2OC)O[C@@H]9COC)O[C@@H]8COC)O[C@@H]7COC)O[C@@H]6COC)O[C@@H]5COC)O[C@@H]4COC)O[C@@H]3COC` [TRIME-γ-CD, permethylated-γ-CD], the “Enantioseparation (Rs) of MDPV” value in data set [1] (setting [9]) amounted to 0. Also, the “Enantioseparation (Rs) of Mephedrone” value in data set [2] (setting [9]) turned out to be 0. In addition, the “Enantioseparation (Rs) of Butylone” value in data set [3] (setting [9]) was 0. Moreover, the “Enantioseparation (Rs) of Flephedrone” value in data set [4] (setting [9]) stood at 0. Besides, the “Enantioseparation (Rs) of 4-MEC” value in data set [5] (setting [9]) was 0.

Turning to succinyl-β-CD [Succ-β-CD (DS~4)], the “4-MEC maximal enantioresolution Rs” value in data set [6] stood at 1.1. The “Butylone maximal enantioresolution Rs” value in data set [6] turned out to be 1.3. Moreover, the “MDPV maximal enantioresolution Rs” value in data set [6] was 2.5. Also, the “Enantioseparation (Rs) of Mephedrone” value was 0 and 0 0 0 in data set [2] (setting [10]); 0 and 0 0 0 in data set [2] (setting [11]); 0 and 0 0 0 in data set [2] (setting [7]). Further, the figures for the “Enantioseparation (Rs) of Butylone” value in data set [3] (setting [10]), in data set [3] (setting [11]) and in data set [3] (setting [7]) were 2.4, 2.5 and 2.6, respectively. In addition, the “Enantioseparation (Rs) of Flephedrone” value in data set [4] (setting [10]) was found to be 0; in data set [4] (setting [11]), 0.9; in data set [4] (setting [7]), 1.2.

As for `COCC1OC2OC3C(COC)OC(OC4C(COC)OC(OC5C(COC)OC(OC6C(COC)OC(OC7C(COC)OC(OC8C(COC)OC(OC1C(OC)C2OC)C(OC)C8OC)C(OC)C7OC)C(OC)C6OC)C(OC)C5OC)C(OC)C4OC)C(OC)C3OC` (stereo not drawn) [TRIME-β-CD, permethylated-β-CD], the “Enantioseparation (Rs) of MDPV” value in data set [1] (setting [9]) came to 0. Besides, in data set [2] (setting [9]), the “Enantioseparation (Rs) of Mephedrone” value turned out to be 0. In addition, in data set [3] (setting [9]), the “Enantioseparation (Rs) of Butylone” value is reported as 0. In data set [4] (setting [9]), the “Enantioseparation (Rs) of Flephedrone” value is 0. Also, in data set [5] (setting [9]), the “Enantioseparation (Rs) of 4-MEC” value is given as 0.

For sulfated-γ-CD [S-γ-CD], the “Enantioseparation (Rs) of MDPV” value is listed as 0 in data set [1] (setting [10]), 1.1 in data set [1] (setting [11]) and 1.5 in data set [1] (setting [7]). The entries for the “Enantioseparation (Rs) of Mephedrone” value in data set [2] (setting [10]), in data set [2] (setting [11]) and in data set [2] (setting [7]) were 0.7, 1.1 and 1.0, respectively. Further, the results for the “Enantioseparation (Rs) of Butylone” value in data set [3] (setting [10]), in data set [3] (setting [11]) and in data set [3] (setting [7]) were 0.6, 0.7 and 1.4, respectively. The “Enantioseparation (Rs) of Flephedrone” value in data set [4] (setting [10]), in data set [4] (setting [11]) and in data set [4] (setting [7]) was 0 throughout. For the same compound, the “Enantioseparation (Rs) of 4-MEC” value is 0.5 in data set [5] (setting [10]), 0.6 in data set [5] (setting [11]) and 0 in data set [5] (setting [7]).

Take `OCCCNC[C@H]1O[C@@H]2O[C@H]3[C@H](O)[C@@H](O)[C@@H](O[C@H]4[C@H](O)[C@@H](O)[C@@H](O[C@H]5[C@H](O)[C@@H](O)[C@@H](O[C@H]6[C@H](O)[C@@H](O)[C@@H](O[C@H]7[C@H](O)[C@@H](O)[C@@H](O[C@H]8[C@H](O)[C@@H](O)[C@@H](O[C@H]1[C@H](O)[C@H]2O)O[C@@H]8CO)O[C@@H]7CO)O[C@@H]6CO)O[C@@H]5CO)O[C@@H]4CO)O[C@@H]3CO` [HPA-β-CD, mono-6^A-(3-hydroxy)propylamino-β-CD]: the “MDPV maximal enantioresolution Rs” value in data set [6] was 0.6.

With phosphated-β-CD [Phos-β-CD], in data set [6], the “4-MEC maximal enantioresolution Rs” value amounted to 1.4, the “Butylone maximal enantioresolution Rs” value came out at 1.7, the “Flephedrone maximal enantioresolution Rs” value is given as 4.0 and the “MDPV maximal enantioresolution Rs” value was 2.6. Further, in data set [6], the “Mephedrone maximal enantioresolution Rs” value was determined as 1.8.

As to acetylated-β-CD [Ac-β-CD], in data set [6], the “Butylone maximal enantioresolution Rs” value is recorded as 0.9 and the “MDPV maximal enantioresolution Rs” value amounted to 0.8.

Regarding “sulfo(2-hydroxy)propylated-γ-CD [SHP-γ-CD]”, in data set [6], the “4-MEC maximal enantioresolution Rs” value was found to be 0.8, the “Butylone maximal enantioresolution Rs” value came out at 0.7 and the “Mephedrone maximal enantioresolution Rs” value turned out to be 0.6.

Consider “sulfo(2-hydroxy)propylated-β-CD [SHP-β-CD]”, for which, in data set [6], the “4-MEC maximal enantioresolution Rs” value is 0.5, the “MDPV maximal enantioresolution Rs” value turned out to be 0.7 and the “Mephedrone maximal enantioresolution Rs” value is on record as 0.6.

As to `OC[C@H]1O[C@@H]2O[C@H]3[C@H](O)[C@@H](O)[C@@H](O[C@H]4[C@H](O)[C@@H](O)[C@@H](O[C@H]5[C@H](O)[C@@H](O)[C@@H](O[C@H]6[C@H](O)[C@@H](O)[C@@H](O[C@H]7[C@H](O)[C@@H](O)[C@@H](O[C@H]8[C@H](O)[C@@H](O)[C@@H](O[C@H]1[C@H](O)[C@H]2O)O[C@@H]8CO)O[C@@H]7CO)O[C@@H]6CO)O[C@@H]5CN1CCCC1)O[C@@H]4CO)O[C@@H]3CO` [PYR-β-CD, 6-monodeoxy-6-pyrrolidine-β-CD], in data set [6], the “MDPV maximal enantioresolution Rs” value is 0.5.
